In PMC8128147:
These are yes or no findings as the source states them, for the method shown. In cells and extracts the contact can be indirect. Some results given as binding are weak or reduced against the parent protein; the word gives no strength.

Chains of the proteins cited; added tags and fusions are not shown.
UniProt O95832: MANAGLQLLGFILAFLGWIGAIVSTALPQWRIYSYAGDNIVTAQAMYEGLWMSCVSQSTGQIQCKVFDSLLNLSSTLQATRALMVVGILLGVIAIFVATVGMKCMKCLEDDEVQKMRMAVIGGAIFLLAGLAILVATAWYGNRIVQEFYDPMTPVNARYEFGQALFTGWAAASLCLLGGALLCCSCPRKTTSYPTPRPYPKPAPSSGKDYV
UniProt Q07157: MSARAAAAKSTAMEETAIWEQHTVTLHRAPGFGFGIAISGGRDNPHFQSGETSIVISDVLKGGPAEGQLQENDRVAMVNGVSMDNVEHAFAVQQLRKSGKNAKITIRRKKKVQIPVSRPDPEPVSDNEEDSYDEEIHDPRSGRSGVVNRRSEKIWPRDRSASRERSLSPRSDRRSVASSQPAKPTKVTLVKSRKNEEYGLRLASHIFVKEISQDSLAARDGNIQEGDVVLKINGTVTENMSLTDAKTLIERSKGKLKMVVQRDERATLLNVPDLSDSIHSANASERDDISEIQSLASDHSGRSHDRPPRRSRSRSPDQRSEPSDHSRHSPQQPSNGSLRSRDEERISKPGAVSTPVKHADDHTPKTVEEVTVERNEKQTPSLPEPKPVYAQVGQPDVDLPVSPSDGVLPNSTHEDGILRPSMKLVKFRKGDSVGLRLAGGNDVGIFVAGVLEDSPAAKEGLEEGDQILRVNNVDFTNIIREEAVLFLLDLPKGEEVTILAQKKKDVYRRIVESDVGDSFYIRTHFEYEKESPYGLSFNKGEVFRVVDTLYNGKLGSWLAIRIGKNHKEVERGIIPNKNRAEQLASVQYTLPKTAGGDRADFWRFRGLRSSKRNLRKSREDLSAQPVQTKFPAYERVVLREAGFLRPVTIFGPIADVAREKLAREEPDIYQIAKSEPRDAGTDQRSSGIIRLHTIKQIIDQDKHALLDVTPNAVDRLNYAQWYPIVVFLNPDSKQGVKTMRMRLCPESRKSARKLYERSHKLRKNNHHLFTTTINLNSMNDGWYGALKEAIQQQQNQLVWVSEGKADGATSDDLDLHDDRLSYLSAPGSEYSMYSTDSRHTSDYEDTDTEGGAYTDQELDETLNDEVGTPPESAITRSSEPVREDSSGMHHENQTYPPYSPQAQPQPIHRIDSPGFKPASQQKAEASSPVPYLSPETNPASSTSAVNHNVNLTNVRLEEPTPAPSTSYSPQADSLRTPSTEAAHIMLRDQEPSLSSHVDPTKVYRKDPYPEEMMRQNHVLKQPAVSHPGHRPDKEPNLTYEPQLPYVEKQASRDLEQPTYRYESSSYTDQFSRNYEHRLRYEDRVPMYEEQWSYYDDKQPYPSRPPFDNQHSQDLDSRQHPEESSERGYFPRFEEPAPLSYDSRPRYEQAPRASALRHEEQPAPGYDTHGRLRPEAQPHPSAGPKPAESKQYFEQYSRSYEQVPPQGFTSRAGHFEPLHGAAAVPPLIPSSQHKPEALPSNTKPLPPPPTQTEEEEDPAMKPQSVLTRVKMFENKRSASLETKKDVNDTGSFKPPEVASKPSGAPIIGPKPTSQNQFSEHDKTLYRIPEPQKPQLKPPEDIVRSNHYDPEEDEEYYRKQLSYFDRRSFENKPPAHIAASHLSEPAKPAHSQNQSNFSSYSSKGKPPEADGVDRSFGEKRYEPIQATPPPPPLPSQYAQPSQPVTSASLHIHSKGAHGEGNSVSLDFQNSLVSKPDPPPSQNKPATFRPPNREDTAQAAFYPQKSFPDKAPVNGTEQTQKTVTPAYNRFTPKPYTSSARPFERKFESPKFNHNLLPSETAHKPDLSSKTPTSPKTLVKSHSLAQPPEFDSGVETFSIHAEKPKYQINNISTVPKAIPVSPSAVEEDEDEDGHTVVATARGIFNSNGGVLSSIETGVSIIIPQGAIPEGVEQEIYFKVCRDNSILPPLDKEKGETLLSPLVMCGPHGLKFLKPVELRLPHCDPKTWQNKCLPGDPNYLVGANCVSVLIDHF

Key:
[1] = target: T1, occludin (human (endogenous in Caco-2; cell line not named for the co-IP)) (UniProt Q16625); experiment: co-IP; endogenous proteins; pre-cleared cell extracts (1 mg protein) in 50 mM Tris-HCl pH 7.4, 150 mM NaCl, 1 mM EDTA, 1% NP-40; IP with antibodies to E-cadherin, claudin-1 or occludin overnight at 4°C, Protein G beads; control IP with IgG/unrelated serum; Western blot
T1 sequence: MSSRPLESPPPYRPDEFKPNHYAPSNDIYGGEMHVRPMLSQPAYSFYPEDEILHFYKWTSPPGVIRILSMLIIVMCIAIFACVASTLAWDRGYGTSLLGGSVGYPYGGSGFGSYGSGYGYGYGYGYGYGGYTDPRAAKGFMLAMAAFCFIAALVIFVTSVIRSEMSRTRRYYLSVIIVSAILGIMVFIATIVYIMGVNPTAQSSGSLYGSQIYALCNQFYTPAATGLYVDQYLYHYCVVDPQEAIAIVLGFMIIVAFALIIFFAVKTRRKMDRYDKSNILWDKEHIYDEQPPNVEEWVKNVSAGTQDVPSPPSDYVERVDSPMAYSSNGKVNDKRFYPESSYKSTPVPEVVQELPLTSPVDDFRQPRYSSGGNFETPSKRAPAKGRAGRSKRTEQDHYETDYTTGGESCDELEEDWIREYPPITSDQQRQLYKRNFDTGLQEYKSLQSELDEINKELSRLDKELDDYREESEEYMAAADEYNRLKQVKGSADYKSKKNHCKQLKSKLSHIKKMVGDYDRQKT

[2] = target: claudin-1 (human (endogenous in Caco-2; cell line not named for the co-IP)) (UniProt O95832); experiment: as above

binding [1] | binding [2] | Substance
binds | binds | arpin (from UniProt Q7Z6K5 1-226)
binds | – | zonula occludens 1 (ZO-1) (from UniProt Q07157 1-1748)
